# Some of the results follow. The main result of the screen is listed elsewhere. These columns were measured beside it and carry no call. The list favours compounds with an active or inconclusive main result. Words in brackets tell the shape of the fitted curve; partial curves, single points and poor fits give uncertain potencies.
# Experiment: qHTS Assay to Find Inhibitors of Chronic Active B-Cell Receptor Signaling
# Settings: ABC-DLBCL IkBa-CBG/CBR reporter, luminescence ratio (green luciferase fused to IkBa over red control in TMD8 lymphoma cells), 4 h
# Method in brief: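 Compounds up to 46 uM were incubated four hours with TMD8 cells whose green CBG68 luciferase is fused to IkappaBalpha; red CBR luminescence normalised the signal, and concentration-effect curves were fitted to fusion, red and ratio data.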
# [1] = measured here: CBR red luminescence, cell number
# [2] = measured here: IkBa-CBG green luminescence
SMILES,AC50 [1],AC50 [2]
COc1ccccc1NC(=O)c1cc2c(CO)cnc(C)c2oc1=Nc1ccc(OC)c(OC)c1,"2.24 µM [rising, partial curve, poor fit]",
Cc1ccc2cc(CN(CC(C)C)S(=O)(=O)c3ccccc3)c(=O)[nH]c2c1,"0.794 µM [falling, full curve, poor fit]",
Cc1cc(OCC(=O)NCCCN(C)C)cc(C)c1Br,"15.8 µM [falling, partial curve, poor fit]",
Cc1ccc(-n2c(Cc3noc4ccccc34)n[nH]c2=S)cc1,"1.26 µM [falling, full curve]",
C(=N\N1CCN(c2ccccn2)CC1)/c1ccccn1,"35.5 µM [falling, single point]",
CCCSc1nnc(NC(=O)Nc2ccccc2)s1,"0.731 µM [rising, full curve, poor fit]",
COc1ccccc1N1CCN(C(=O)c2sc3nc(C)nc(N4CCN(c5ccccn5)CC4)c3c2C)CC1,"20 µM [falling, single point]",
Cc1ccc(S(=O)(=O)c2ccccc2)cc1S(=O)(=O)N1CCOCC1,"23.1 µM [rising, single point]",
O=C(Oc1ccnc2cc(Cl)ccc12)N1CCCCCC1,"35.5 µM [falling, single point]",
CCN(CC)C(=O)COc1ccc(/C(C)=N/NC(=O)c2ccccc2Br)cc1,"11.2 µM [falling, partial curve]",
O=S(=O)(c1ccc(SCCOc2cccc(Br)c2)nc1)N1CCCC1,"7.31 µM [falling, partial curve]",
Nc1nc(SCC(=O)O)[nH]c(=O)c1NC(=O)c1ccccc1F,"0.631 µM [rising, full curve, poor fit]",
CCOC(=O)C1=CN(CC)S(=O)(=O)NC1CCc1ccccc1 (configuration not stated),"29.1 µM [falling, single point]",
CCOc1ccccc1NC(=O)c1cc(C(=O)c2cc(OC)ccc2O)coc1=N,"18.4 µM [falling, partial curve, poor fit]",
COc1ccccc1Nc1ncc(C(=O)Nc2ccc(OC)c(OC)c2)c2ccccc12,"20.6 µM [rising, partial curve, poor fit]",
Cc1ccc(N2CC(C(=O)Nc3ccc(C)c(S(=O)(=O)N(C)C)c3)CC2=O)cc1 (configuration not stated),"14.1 µM [falling, single point]",
Cn1c(SCC(=O)Nc2ccc(NC(=O)c3cccc(F)c3)cc2)nnc1-c1ccncc1,"7.94 µM [rising, partial curve, poor fit]",
O=c1[nH]nc(CNc2ccc(OC(F)(F)F)cc2)c2ccccc12,"5.62 µM [rising, single point]",
CC(C)c1csc(CN2CCC(N3CCC(C(=O)NCC4CCCO4)CC3)CC2)n1 (configuration not stated),"5.62 µM [rising, partial curve, poor fit]",
CCCN1CN(Cc2ccccc2)CC2=C1CC(C)(C)CC2=O,"0.316 µM [falling, full curve, poor fit]",
O=C(CSc1ncnc2[nH]ncc12)Nc1cccc(Oc2ccccc2)c1,"25.1 µM [falling, single point]",

SMILES,AC50 [1],AC50 [2]
Cc1ccc(/C=C/C(=O)NCc2cccs2)c(C)c1,"28.2 µM [falling, single point]",
C/C(=N\NC(=O)c1cc(C)[nH]n1)c1ccc(-c2ccccc2)cc1,"5.62 µM [rising, full curve]",
CCOP(=O)(OCC)/C(=N/OC(=O)c1ccc(OC)cc1)C(N)=O,"35.5 µM [rising, single point]",
COc1ccccc1C(=O)NNC(=O)c1ccc(Br)cc1,"10 µM [falling, single point]",
O=C(/C=C/c1ccccc1)Nc1cccnc1Oc1ccccc1F,"7.08 µM [falling, partial curve]",
COc1ccc(S(=O)(=O)Nc2cccc(-c3ccc4nncn4n3)c2)cc1F,"35.5 µM [rising, single point]","22.4 µM [falling, single point]"
Cc1nc2ccccc2c(=O)n1/N=C/c1c(O)ccc2ccccc12,"8.91 µM [falling, partial curve]",
Cc1noc(C)c1Cn1nc(C(=O)O)c2ccccc2c1=O,"11.2 µM [rising, single point]",
CCN1C(=S)SC(=O)C1=C1C=C(C)N(CCO)C(C)=C1,"3.98 µM [rising, full curve, poor fit]",
Cc1ccc(-n2c(C)nc3oc4ccccc4c(=O)c3c2=O)cc1,"2.82 µM [falling, full curve, poor fit]",
Cc1sc2ncn(CC(=O)N(CC(=O)NC3CCCC3)Cc3cccs3)c(=O)c2c1C,"15.8 µM [rising, single point]",
Cc1cccc(C(=O)Nc2cccc3cccnc23)c1,"2.82 µM [rising, partial curve, poor fit]",
CCN(CC)c1ccc(/C=C(/C#N)c2nc3ccccc3[nH]2)c(OC(C)C)c1,"1.41 µM [falling, full curve, poor fit]",
COc1ccc(Cl)cc1C(=O)NNC(=O)c1ccc(F)c(S(=O)(=O)N2CCOCC2)c1,"16.4 µM [falling, partial curve, poor fit]",
Cc1ccc(S(=O)(=O)NNC(=O)CCC(=O)Nc2ccc(C)c(C)c2)cc1,"22.4 µM [falling, single point]",
NS(=O)(=O)c1cccc(NC(=O)c2cccnc2Oc2ccccc2)c1,"7.94 µM [rising, partial curve]","14.1 µM [falling, partial curve, poor fit]"
COC(=O)c1cc(C#N)c(N(C)Cc2ccccc2)nc1C,"29.1 µM [rising, single point]","8.2 µM [falling, partial curve, poor fit]"
CCOc1cc(C(=O)NN=C2CCCC2)cc(OCC)c1OCC,"22.4 µM [rising, single point]","17.8 µM [falling, single point]"
Cc1ccc(OCC(O)CN2CCN(c3ccccc3)CC2)cc1 (configuration not stated),"7.08 µM [rising, partial curve]",
CC(C)c1ccccc1NC(=O)c1ccc2ncsc2c1,"10 µM [falling, partial curve]",
O=C(Oc1coc(CSc2nnc(NC(=O)C3CC3)s2)cc1=O)c1c(F)cccc1F,"17.8 µM [falling, single point]",

# Part of the list above in order of length of the SMILES, rising.
SMILES,AC50 [1],AC50 [2]
O=c1[nH]nc(CNc2ccc(OC(F)(F)F)cc2)c2ccccc12,"5.62 µM [rising, single point]",
Cc1ccc2cc(CN(CC(C)C)S(=O)(=O)c3ccccc3)c(=O)[nH]c2c1,"0.794 µM [falling, full curve, poor fit]",
O=C(Oc1coc(CSc2nnc(NC(=O)C3CC3)s2)cc1=O)c1c(F)cccc1F,"17.8 µM [falling, single point]",

# Next part

SMILES,AC50 [1],AC50 [2]
Cc1cc(NC(=O)CCC2CCCC2)no1,"29.1 µM [rising, single point]",
CCN1CCCC1Cn1cnc2c([nH]c3ccc(Cl)cc32)c1=O (configuration not stated),"7.94 µM [falling, partial curve]",
COC(=O)C1=C(C)N=C2SC(C#N)=C(N)N2C1c1ccc(OCc2ccccc2)cc1 (configuration not stated),"29.1 µM [falling, single point]",
O=C(Nc1ccc2ccccc2c1)c1ccccc1O,"1 µM [falling, full curve]",
COC(=O)C1(O)CC(CC(C)C)=NN1C(=O)c1ccccc1 (configuration not stated),"3.66 µM [falling, full curve]",
CC1CCN(c2ccccc2NC(=O)c2cc([N+](=O)[O-])ccc2N2CCOCC2)CC1,"2.82 µM [rising, partial curve, poor fit]",
CCSc1nnc(NC(=O)NC2CCCCC2)s1,"3.98 µM [rising, partial curve, poor fit]",
COc1cc2c(cc1OC)C1O[C@](CCCCN3C(=O)c4ccccc4C3=O)(C2)OC2=C1C(=O)CC(C)(C)C2,,"1.58 µM [rising, partial curve, poor fit]"
CC(C)(C)OC(=O)NCc1ccc(CNC(=O)c2[nH]cnc2C(=O)NC2CCN(C(=O)OC(C)(C)C)CC2)cc1,"29.1 µM [falling, single point]",
N#CNC(=Nc1cccc(F)c1)SCc1ccccc1F,"23.1 µM [falling, single point]",
O=C(COC(=O)/C=C/c1ccc(C(F)(F)F)cc1)Nc1ccc2[nH]c(=O)[nH]c2c1,"6.51 µM [rising, single point]",
Cc1oc(-c2ccc(Cl)cc2)cc1C(=O)NC1CCN(Cc2ccccc2)CC1,"3.16 µM [rising, full curve, poor fit]",
Clc1ccc2nc(CSCc3ccccc3)cn2c1,"0.398 µM [rising, full curve, poor fit]",
O=C(NC(=S)Nc1ccc(N2CCCC2)cc1)c1ccc(F)cc1,"0.562 µM [falling, full curve]",
COc1ccccc1N(C)S(=O)(=O)c1ccc(C(=O)Nc2nc(C)cs2)cc1,"17.8 µM [falling, partial curve, poor fit]",
O=S1(=O)N=C(N(CCO)/N=C/c2ccc(Cl)cc2)c2ccccc21,"12.6 µM [rising, partial curve]",
O=C(O)c1ccccc1N=Cc1c(O)n(-c2nccs2)c(=O)c2ccccc12,"10 µM [falling, partial curve]",
CCc1ccc2c(c1)CCCN2C(=O)c1ccccc1C(=O)O,"2.06 µM [falling, partial curve, poor fit]",
CCCc1cc(C(=O)NC2CCCCC2)no1,"2.06 µM [falling, full curve]",
O=C(O)Cc1ccc(NC(=O)c2ccc(NC(=O)C3CC3)cc2)cc1,"17.8 µM [falling, partial curve]",
COc1ccc2oc(=O)c(-c3cn4c(n3)sc3cc(F)ccc34)cc2c1,"14.1 µM [falling, partial curve]",

# Part of the list above, with tabs.
SMILES	AC50 [1]	AC50 [2]
CC(C)c1ccccc1NC(=O)c1ccc2ncsc2c1	10 µM [falling, partial curve]	
COc1ccc2oc(=O)c(-c3cn4c(n3)sc3cc(F)ccc34)cc2c1	14.1 µM [falling, partial curve]	
